PubChem BioAssay AID1259331, Drosophila RNAi Screening Center, 2017
This is a random part of about 3,100 reagents. Of all reagents, 126 (4.1%) were called active. 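Calls are per reagent; zinc was so toxic that few knock-downs lowered ATP further, so most hits raise ATP.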 The raw values are shown without normalisation. A plus sign joins genes that one reagent is predicted to hit. Not given: the amount of reagent.

Assay: 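Knock-downs that alter ATP level after a high zinc chloride dose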 (primary screen)
Cell system: Drosophila S2R+ cells
Reagents: long dsRNA against Drosophila genes
Time to read-out: 5 days (4 days knock-down, then 1 day zinc)
Conditions: zinc chloride at 15 mM final level for 1 day
Detection: 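Total cellular ATP measured by luciferase luminescence as a viability proxy, turned into Z scores from three plate copies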
Reading the numbers: mean Z score: higher = more ATP than other wells, better survival under zinc; ATP luminescence: higher = more ATP, more viable cells
Active means: 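Hit when the absolute Z score is greater than 1.5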
Calls: active = hit, ATP up or down; inactive = not a hit

The opening 6 entries, ahead of the listing:
gene	PubChem SID	mean Z score	ATP luminescence, replicate 1	ATP luminescence, replicate 2	Outcome
Sr-CIII	SID104201784	0.11	54579	59277	inactive
Gr93a	SID104194385	0.221	36478	60649	inactive
Gr93a	SID104217330	-0.153	56568	51995	inactive
MsR1	SID104188407	-0.364	62776	65931	inactive
MsR1	SID104205011	0.251	59740	60855	inactive
mthl14	SID104187657	-0.188	44085	41119	inactive

The list itself, repeating the preview:
gene	PubChem SID	mean Z score	ATP luminescence, replicate 1	ATP luminescence, replicate 2	Outcome
Sr-CIII	SID104201784	0.11	54579	59277	inactive
Gr93a	SID104194385	0.221	36478	60649	inactive
Gr93a	SID104217330	-0.153	56568	51995	inactive
MsR1	SID104188407	-0.364	62776	65931	inactive
MsR1	SID104205011	0.251	59740	60855	inactive
mthl14	SID104187657	-0.188	44085	41119	inactive
mthl14	SID104217220	-0.0492	60430	56239	inactive
PIG-B	SID104202015	-0.663	39010	42679	inactive
PIG-B	SID104217234	-0.0841	58750	57151	inactive
meigo	SID104195669	-0.702	31803	52653	inactive
meigo	SID104204380	0.394	57442	64748	inactive
CG30344	SID104204931	0.106	57442	61112	inactive
CG3149	SID104197524	0.0401	47406	44462	inactive
CG3149	SID104206055	0.311	68778	61123	inactive
CG32079	SID104202044	0.306	55385	46503	inactive
CG32079	SID104217001	2.46	86273	78589	active
CadN2	SID104182854	0.232	47840	47120	inactive
CadN2	SID104182855	-0.3	69773	55590	inactive
GluRIID	SID104196515	-0.399	34034	54579	inactive
GluRIID	SID104203444	-0.573	39079	53883	inactive
brv2	SID104190018	-0.423	66857	53035	inactive
brv2	SID104208340	-0.148	49503	43526	inactive
Snmp2	SID104190020	-0.313	70836	54716	inactive
Snmp2	SID104190635	-0.295	39041	41976	inactive
Papst2	SID104190716	-0.409	30490	24919	inactive
Papst2	SID104205756	0.0507	56482	64662	inactive
CG6574	SID104195862	-0.0318	36285	56259	inactive
CG6574	SID104217269	-0.216	58510	57139	inactive
CG6927	SID104198199	-0.302	41685	44288	inactive
CG6927	SID104217300	0.296	62398	66514	inactive
Nhe1	SID104180554	-0.122	53190	55892	inactive
Nhe1	SID104217336	-0.408	51904	48930	inactive
lz	SID104203703	-0.137	51801	53658	inactive
lz	SID104215163	-0.0159	46828	51269	inactive
CG8112	SID104196169	0.426	37605	63479	inactive
CG8112	SID104216997	-0.147	50618	47411	inactive
Zip102B	SID104204545	0.0459	54664	56791	inactive
Zip102B	SID104217314	-0.0895	56482	58454	inactive
CG7882	SID104184691	0.165	1.13e5	79348	inactive
Eaat1	SID104183113	0.406	57014	40622	inactive
Eaat1	SID104217182	0.0222	59157	61850	inactive
PIG-F	SID104190861	-0.168	72124	58351	inactive
PIG-F	SID104205571	0.067	60512	58934	inactive
CCHa2-R	SID104184662	0.0598	88503	74524	inactive
CCHa2-R	SID104184663	-0.26	96052	67698	inactive
Grl36a	SID104201417	-0.0116	46811	44360	inactive
CG9416	SID104187131	-0.134	68208	67221	inactive
Unc-115b + p24-2	SID104196284	0.213	44981	48783	inactive
unc-5	SID104185337	-1.24	44017	46863	inactive
unc-5	SID104187503	0.014	79000	74318	inactive
unc-5	SID104187504	0.0929	43699	44219	inactive
spict	SID104181949	-0.521	47440	50367	inactive
spict	SID104217038	0.0749	56585	53190	inactive
Cox10	SID104182596	-0.177	53053	54424	inactive
Cox10	SID104217113	0.214	54339	52675	inactive
LBR	SID104184090	0.0536	31125	33171	inactive
LBR	SID104208006	-0.297	54493	59191	inactive
CG7744	SID104186828	0.0046	32273	33130	inactive
CG7744	SID104217006	0.537	57191	52007	inactive
CG12438	SID104181959	0.488	55788	38925	inactive
hbs	SID104187419	-0.241	65725	67149	inactive
hbs	SID104217021	0.273	59123	55676	inactive
Tsp42Ec	SID104185984	0.0138	88538	71934	inactive
Tsp42Ec	SID104205312	-0.686	60512	40553	inactive
msk	SID104191132	-0.439	25915	28039	inactive
msk	SID104202949	0.556	63633	64113	inactive
Or30a	SID104183177	-0.177	51008	40845	inactive
Or30a	SID104217131	-0.612	55199	53346	inactive
